For some of these results: Strings that start with PEPTIDE1 are HELM notation: dots part the residues, brackets hold end groups and non-standard residues.
Key:
[1] = general procedure: Fmoc solid-phase peptide synthesis; Fmoc-Glu(OtBu)-preloaded Wang resin; HOAt / HATU, DIPEA (Sulfo-Cy5 conjugation in solution); settings: whole synthesis, scale 0.33 mmol
[2] = general procedure: Fmoc solid-phase peptide synthesis; Fmoc-Glu(OtBu)-preloaded Wang resin; 2-CTC resin; HOAt / HATU, DIPEA (Sulfo-Cy5 conjugation in solution); settings: conjugation step

Substance: Ac-mas3-k-y-nal-k-Sub-KuE
- final HPLC purity ([1]; HPLC): >95%
- isolated mass [1]: 10.3 mg

Substance: PEPTIDE1{[AcSCH2CO].[dS].[dS].[dS].[dK].[dY].[D-2Nal].[dK]}|CHEM1{[SulfoCy5]}|CHEM2{[Sub-KuE]}$PEPTIDE1,CHEM1,5:R3-1:R2|PEPTIDE1,CHEM2,8:R3-1:R2$$$V2.0
- final HPLC purity ([2]; HPLC): >95%
- conjugation yield ([2]; based on starting peptide): 12%

— patent publication US20260224761A1 (priority 2023, published 2026)
